Measured values taken from publication PMC8380221.
Results are given in words; binding and its absence hold for the method and conditions named. A result given as binding can be weak or reduced; the word gives no strength. Where a sequence is shown, tags or fusion partners need not be part of it. For some of these results: Binding seen in cells or lysates may run through a third protein. Values belong to the molecule of their own block, whether it stands above or below them.

Legend:
[1] = target: T1, SUCROSE NO… 1-RELATED PROTEIN KINASE 1A fused to the GAL4 DNA-binding domain (rice (Oryza sativa L.)) (UniProt Q852Q2); assay: two-hybrid; yeast AH109; OsFLZ-AD (pGADT7) with SnRK1A-BD (pGBKT7); growth on SD/-Trp/-Leu/-His/-Ade
T1 sequence: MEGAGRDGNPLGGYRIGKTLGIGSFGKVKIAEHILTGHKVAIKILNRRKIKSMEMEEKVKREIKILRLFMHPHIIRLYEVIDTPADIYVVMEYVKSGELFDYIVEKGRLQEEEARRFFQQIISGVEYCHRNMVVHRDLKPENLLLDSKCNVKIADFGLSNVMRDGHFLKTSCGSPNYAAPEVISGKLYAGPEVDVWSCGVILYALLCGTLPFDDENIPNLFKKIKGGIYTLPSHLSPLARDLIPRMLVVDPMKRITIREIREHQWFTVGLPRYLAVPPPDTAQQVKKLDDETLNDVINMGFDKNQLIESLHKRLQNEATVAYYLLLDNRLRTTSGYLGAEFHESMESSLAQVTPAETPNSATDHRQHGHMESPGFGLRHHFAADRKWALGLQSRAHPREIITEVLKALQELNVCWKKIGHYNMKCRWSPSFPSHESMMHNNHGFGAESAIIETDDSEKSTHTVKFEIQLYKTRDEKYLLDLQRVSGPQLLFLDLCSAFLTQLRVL

[2] = target: T1, SUCROSE NO… 1-RELATED PROTEIN KINASE 1A fused to the GAL4 DNA-binding domain (rice (Oryza sativa L.)); assay: two-hybrid; yeast AH109; OsFLZ-AD (pGADT7) with SnRK1A-BD (pGBKT7); growth on SD/-Trp/-Leu/-His with 1 mM 3-AT
[3] = target: T2, SnRK1A-nYFP (rice (Oryza sativa L.)) (UniProt Q852Q2); assay: split reporter; BiFC: SnRK1A-nYFP and OsFLZ18-cYFP transiently co-expressed in Nicotiana benthamiana leaves, 72 h, confocal microscopy
T2 sequence: T1 sequence

[4] = target: GST-tagged OsFLZ18 (rice (Oryza sativa L.)); assay: pull-down; GST or GST-OsFLZ18 on GST-resin incubated with His-SnRK1A in 50 mM Tris-HCl, 150 mM NaCl, 1 mM EDTA, 1% NP-40 at 4 °C overnight; immunoblot with anti-GST and anti-His

binding [1]: binds
Molecule: OsFLZ20 fused to the GAL4 activation domain (rice (Oryza sativa L.))

binding [2]: binds
Molecule: OsFLZ10 fused to the GAL4 activation domain (rice (Oryza sativa L.))

binding [1]: binds
Molecule: OsFLZ6 fused to the GAL4 activation domain (rice (Oryza sativa L.))

binding [1]: binds
Molecule: OsFLZ11 fused to the GAL4 activation domain (rice (Oryza sativa L.))

binding [2]: binds
Molecule: OsFLZ27 fused to the GAL4 activation domain (rice (Oryza sativa L.))

binding [1]: binds
Molecule: OsFLZ5 fused to the GAL4 activation domain (rice (Oryza sativa L.))

binding [3]: binds
Molecule: OsFLZ18-cYFP (rice (Oryza sativa L.))

binding [1]: binds
Molecule: OsFLZ2 fused to the GAL4 activation domain (rice (Oryza sativa L.))

binding [1]: binds
Molecule: OsFLZ18 fused to the GAL4 activation domain (rice (Oryza sativa L.))

binding [4]: binds
B1: His-tagged SnRK1A (enzyme, UniProt Q852Q2 1-505)
chain: T1 sequence
